Experiment: general procedure: Fmoc solid-phase peptide synthesis; 2-Chlorotrityl chloride resin; DIPCDI/HOBt
Details: whole synthesis

HBED-CC-(D-Glu-L-Glu)7
isolated yield: 1%
